In paper PMC4846323 one finds binding data, which are given here for 3 substances.

Protein sequences, listed by entry. Tags and fused reporters are not part of them. Lines headed by an entry give the natural chain unless they say otherwise; changes in a name come on top. Chains listed by the source or under a name are the forms on record and can include a tag or linker. Residues count along the entry.
UniProt Q01094: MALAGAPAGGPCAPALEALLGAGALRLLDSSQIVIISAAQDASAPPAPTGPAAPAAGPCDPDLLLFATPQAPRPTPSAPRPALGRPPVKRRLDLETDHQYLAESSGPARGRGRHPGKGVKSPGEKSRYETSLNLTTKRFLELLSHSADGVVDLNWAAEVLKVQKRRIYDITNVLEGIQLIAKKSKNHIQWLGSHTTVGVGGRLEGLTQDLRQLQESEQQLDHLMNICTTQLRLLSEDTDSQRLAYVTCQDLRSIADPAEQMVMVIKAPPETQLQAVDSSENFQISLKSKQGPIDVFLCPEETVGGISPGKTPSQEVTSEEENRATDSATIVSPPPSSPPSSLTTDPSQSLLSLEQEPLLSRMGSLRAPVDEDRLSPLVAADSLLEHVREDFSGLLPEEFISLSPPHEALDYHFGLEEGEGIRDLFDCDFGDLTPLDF
E2F1 N-terminal fragment aa1-200: residues 1-200 of Q01094
E2F1 portion aa201-437: residues 201-437 of Q01094
UniProt O00487: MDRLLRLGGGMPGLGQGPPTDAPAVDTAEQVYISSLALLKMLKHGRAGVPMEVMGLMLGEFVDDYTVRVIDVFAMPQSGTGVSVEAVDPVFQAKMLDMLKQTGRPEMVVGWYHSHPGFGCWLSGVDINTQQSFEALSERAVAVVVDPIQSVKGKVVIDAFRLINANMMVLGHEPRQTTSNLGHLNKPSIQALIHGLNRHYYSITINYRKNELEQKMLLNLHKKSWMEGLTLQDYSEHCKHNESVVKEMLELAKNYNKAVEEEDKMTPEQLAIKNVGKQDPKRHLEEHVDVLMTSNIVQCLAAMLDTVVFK
POH1 mutant with deletion of JAMM motif (deletion of 113-126aa) (O00487, form named): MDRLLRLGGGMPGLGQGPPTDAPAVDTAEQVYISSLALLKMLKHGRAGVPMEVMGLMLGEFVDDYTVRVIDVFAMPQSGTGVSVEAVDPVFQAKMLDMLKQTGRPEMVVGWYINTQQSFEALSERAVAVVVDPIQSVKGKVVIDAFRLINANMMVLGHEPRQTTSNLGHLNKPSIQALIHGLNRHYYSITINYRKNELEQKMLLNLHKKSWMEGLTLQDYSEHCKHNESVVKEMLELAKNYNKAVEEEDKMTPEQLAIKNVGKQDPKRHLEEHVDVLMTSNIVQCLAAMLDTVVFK

The target of assay [1] is E2F1 N-terminal fragment aa1-200 (UniProt Q01094). Kind of assay: co-IP; truncated and deletion mutants of POH1 and E2F1 (Supplementary Fig. 2a,b); cells and precipitating antibody not shown.
Assay [2] has as its target E2F1 portion aa201-437 (UniProt Q01094). The description is as above.
The target in assay [3] is His-tagged E2F1, full length (E2F1-His) (UniProt Q01094). Kind of assay: co-IP; HEK293T cells co-transfected with E2F1-His and POH1-Flag; anti-His antibody or IgG, Protein G-agarose, 4 °C; immunoblot.
The target is the same in assay [4]. Briefly: co-IP; truncated and deletion mutants of POH1 and E2F1 (Supplementary Fig. 2a,b); cells and precipitating antibody not shown.
The target of assay [5] is E2F1, endogenous (Fig. 1i) (UniProt Q01094). Briefly: co-IP; endogenous proteins; anti-E2F1 antibody or IgG, Protein G-agarose, 4 °C; immunoblot. In general terms: In western blotting, separated proteins are transferred to a membrane and probed.

No constants are given. Whether binding was seen depends on the method and setting. Binding seen in cells or lysates may run through a third protein. Some entries that bind do so weakly or less than the wild type.

On to “Flag-tagged POH1 (POH1-Flag) in HEK293T cells (from UniProt O00487 1-310) (enzyme)”, for which the binding entry in assay [1] is listed as “binds weakly”; in assay [2] it was “binds”; in assay [3] it was “binds”.
For the substance “POH1 mutant with deletion of JAMM motif (deletion of 113-126aa) (from UniProt O00487 1-310) (enzyme)”, the binding entry in assay [4] is “binds”.
Take “POH1, endogenous (Fig. 1i) (from UniProt O00487 1-310) (enzyme)”: the binding result in assay [5] is listed as “binds”.
